Results are given in words; binding and its absence hold for the method and conditions named. Binding seen in cells or lysates may run through a third protein. Binding can be weak; no strength is given.
Target: T1, endogenous USP11 (MDCK cells) (canine (endogenous in MDCK)) (UniProt Q01988)
T1 sequence: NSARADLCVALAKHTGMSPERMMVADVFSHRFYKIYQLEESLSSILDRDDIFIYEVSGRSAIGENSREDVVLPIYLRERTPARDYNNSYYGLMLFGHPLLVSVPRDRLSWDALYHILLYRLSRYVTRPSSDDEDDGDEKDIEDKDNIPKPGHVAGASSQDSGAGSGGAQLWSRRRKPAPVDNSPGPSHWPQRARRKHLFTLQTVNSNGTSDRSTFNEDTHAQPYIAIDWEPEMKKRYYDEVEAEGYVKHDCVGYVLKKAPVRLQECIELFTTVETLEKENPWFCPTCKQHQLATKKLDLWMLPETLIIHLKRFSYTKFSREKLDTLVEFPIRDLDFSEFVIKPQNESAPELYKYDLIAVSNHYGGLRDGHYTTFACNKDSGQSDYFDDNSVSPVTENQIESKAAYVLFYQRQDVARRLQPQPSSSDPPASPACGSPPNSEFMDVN
Assay: co-IP; endogenous proteins of MDCK cell lysates; immunoprecipitation with anti-USP11 or anti-Mgl-1 antibody; also in cells transfected with RanBPM shRNA #1 and #2 (interaction decreased)

With “endogenous Mgl-1 (MDCK cells) (canine (endogenous in MDCK))” as the substance, how does the binding read?
Its binding is “binds”.
